Reference: PubChem BioAssay AID248 (DTP/NCI, 2004)
The list is a part of this screen's results and no random one: it gathers tests that were run many times, whatever their T/C, doses with no T/C, and many T/C values between a quarter and a half above the control. Further doses and runs are listed elsewhere. T/C is the treated group as % of the vehicle group. Some entries give survivors of the animals treated and no T/C: the source files T/C as zero there, which appears to mark a toxic dose or a test without result, not a measured value. Some doses without a T/C left all or most animals alive at the check, yet need not have been tolerated: survival well below the control is almost never listed, so the zero probably covers shortened survival too. Survivors were counted at the toxicity check, usually on the fifth day, unless a day is given; later deaths do not show. Schedules are NCI's codes, taken here to give the interval after Q, in days (D) or hours (H), and the number of doses after X. Some doses were run more than once; the results are listed from low to high. For survival time, this PubChem deposit counts one and a half times the control or more as active, and values a quarter to a half above the control carry no call in these data; other NCI protocols may use other cut-offs. Counts like (3×) count equal records among those shown. Some T/C values carry the count of animals alive at the toxicity check (mostly the fifth day); where none is given, no animal had died by that day.

Test system: L1210 leukemia ip in BDF1 mice, survival T/C
Test: NCI In Vivo Anticancer Drug Screen. Data for tumor model L1210 Leukemia (intraperitoneal) in B6D2F1 (BDF1) mice
Settings: T/C endpoint: mean survival time, higher T/C = longer survival
[1] = dose: 200.0 mg/kg/injection, schedule: Q01DX001 (ip), vehicle: saline
[2] = dose: 400.0 mg/kg/injection, schedule: Q01DX001 (ip), vehicle: saline
[3] = dose: 200.0 mg/kg/injection, schedule: Q04DX003 (ip), vehicle: Klucel (hydroxypropylcellulose) (HPC)
[4] = dose: 400.0 mg/kg/injection, schedule: Q04DX003 (ip), vehicle: Klucel (hydroxypropylcellulose) (HPC)
[5] = dose: 200.0 mg/kg/injection, schedule: Q01DX009 (ip), vehicle: saline with Tween-80
[6] = dose: 200.0 mg/kg/injection, schedule: Q01DX009 (ip), vehicle: Klucel (hydroxypropylcellulose) (HPC)
[7] = dose: 100.0 mg/kg/injection, schedule: Q01DX009 (ip), vehicle: Klucel (hydroxypropylcellulose) (HPC)
[8] = dose: 25.0 mg/kg/injection, schedule: Q01DX009 (ip), vehicle: saline with Tween-80
[9] = dose: 50.0 mg/kg/injection, schedule: Q01DX009 (ip), vehicle: saline with Tween-80
[10] = dose: 100.0 mg/kg/injection, schedule: Q01DX009 (ip), vehicle: saline with Tween-80
[11] = dose: 400.0 mg/kg/injection, schedule: Q01DX009 (ip), vehicle: saline with Tween-80
[12] = dose: 100.0 mg/kg/injection, schedule: Q04DX003 (ip), vehicle: saline
[13] = dose: 200.0 mg/kg/injection, schedule: Q04DX003 (ip), vehicle: saline
[14] = dose: 400.0 mg/kg/injection, schedule: Q04DX003 (ip), vehicle: saline
[15] = dose: 400.0 mg/kg/injection, schedule: Q01DX009 (ip), vehicle: Klucel (hydroxypropylcellulose) (HPC)

SMILES: O=S(=O)(Nc1ccccc1)c1ccc([As](=O)(O)O)cc1
- survivor count [1]: 2 of 4
- survivor count [2]: 2 of 4

SMILES: NC(=S)Nc1cccc(Cl)c1
- survivor count (dose: 50.0 mg/kg/injection, schedule: Q01DX009 (ip), vehicle: other): 3 of 6
- survivor count (dose: 100.0 mg/kg/injection, schedule: Q01DX009 (ip), vehicle: other): 0 of 6
- survivor count (dose: 100.0 mg/kg/injection, schedule: Q04DX003 (ip), vehicle: Klucel (hydroxypropylcellulose) (HPC)): 6 of 6
- survivor count (dose: 200.0 mg/kg/injection, schedule: Q01DX009 (ip), vehicle: other): 0 of 6
- survivor count [3]: 2 of 6
- survivor count [4]: 0 of 6

SMILES: O=C(O)/C=C/C(=O)OCCO
- survivor count (dose: 300.0 mg/kg/injection, schedule: Q01DX001 (ip), vehicle: carboxymethylcellulose (CMC)): 6 of 6

SMILES: O=C1c2cccc([N+](=O)[O-])c2C(=O)N1CCl
- survivor count (dose: 400.0 mg/kg/injection, schedule: Q01DX001 (ip), vehicle: steroid suspending solution): 4 of 4

SMILES: COc1ccc2c3c1OC1C(OC(C)=O)=CCC4C(C2)N(C)CCC314 (centres undefined)
- survivor count [1]: 0 of 4
- survivor count [2]: 0 of 4

SMILES: O=[N+]([O-])c1cccc2cccnc12
- T/C [1]: 125 % of control
- survivor count [5]: 3 of 6
- survivor count [2]: 2 of 4

SMILES: CCOC(=O)NCC(CCN1CCCC1)(c1cccc2ccccc12)C(C)C (centres undefined)
- survivor count (dose: 25.0 mg/kg/injection, schedule: Q04DX003 (ip), vehicle: Klucel (hydroxypropylcellulose) (HPC)): 6 of 6

SMILES: N/C(=C\C(=O)c1ccccc1)C(=O)c1ccccc1
- survivor count [4]: 2 of 6

SMILES: [Cl][Hg][Cl].c1cnccn1
- survivor count (dose: 16.0 mg/kg/injection, schedule: Q04DX003 (ip), vehicle: saline with Tween-80): 5 of 6
- survivor count (dose: 32.0 mg/kg/injection, schedule: Q04DX003 (ip), vehicle: saline with Tween-80): 1 of 6

SMILES: NC(Cc1ccc(O)c(I)c1)C(=O)O (centres undefined)
- survivor count (dose: 400.0 mg/kg/injection, schedule: Q01DX009 (ip), vehicle: saline): 0 of 6

SMILES: Cc1n[nH]c(C)c1N=NN1CCOCC1
- survivor count (dose: 10.0 mg/kg/injection, schedule: Q01DX001 (ip), vehicle: saline): 2 of 6
- survivor count (dose: 20.0 mg/kg/injection, schedule: Q01DX001 (ip), vehicle: saline): 1 of 6
- survivor count (dose: 30.0 mg/kg/injection, schedule: Q01DX001 (ip), vehicle: saline): 0 of 6
- survivor count (dose: 40.0 mg/kg/injection, schedule: Q01DX001 (ip), vehicle: saline): 0 of 6
- survivor count (dose: 75.0 mg/kg/injection, schedule: Q01DX001 (ip), vehicle: saline): 0 of 6
- survivor count (dose: 150.0 mg/kg/injection, schedule: Q01DX001 (ip), vehicle: saline): 0 of 6
- survivor count (dose: 300.0 mg/kg/injection, schedule: Q01DX001 (ip), vehicle: saline): 0 of 6

SMILES: c1ccc(C(C2=NCCN2)c2ccccc2)cc1
- survivor count [6]: 0 of 6
- survivor count [3]: 0 of 6
- survivor count [4]: 0 of 6

SMILES: CC(C)(Cc1ccc(F)cc1)NCc1ccccc1
- survivor count [7]: 5 of 6
- survivor count [3]: 3 of 6
- survivor count [4]: 0 of 6

SMILES: CCN=C(c1ccc(NC(=O)c2ccc(C(=O)Nc3ccc(C(=NCC)N(CC)C(=O)NCCCCl)cc3)cc2)cc1)N(CC)C(=O)NCCCCl
- T/C (dose: 3.75 mg/kg/injection, schedule: Q01DX015 (ip), vehicle: methylcellulose (MC)): 131 % of control
- T/C (dose: 4.0 mg/kg/injection, schedule: Q01DX015 (ip), vehicle: methylcellulose (MC)): 138 % of control
- T/C (dose: 7.5 mg/kg/injection, schedule: Q01DX015 (ip), vehicle: methylcellulose (MC)): 129 % of control [5 of 6 alive]
- survivor count (dose: 15.0 mg/kg/injection, schedule: Q01DX015 (ip), vehicle: methylcellulose (MC)): 0 of 6
- survivor count (dose: 30.0 mg/kg/injection, schedule: Q01DX015 (ip), vehicle: methylcellulose (MC)): 0 of 6
- survivor count (dose: 62.5 mg/kg/injection, schedule: Q01DX015 (ip), vehicle: methylcellulose (MC)): 0 of 6
- survivor count (dose: 125.0 mg/kg/injection, schedule: Q01DX015 (ip), vehicle: methylcellulose (MC)): 0 of 6
- survivor count (dose: 250.0 mg/kg/injection, schedule: Q01DX015 (ip), vehicle: methylcellulose (MC)): 0 of 6
- survivor count (dose: 500.0 mg/kg/injection, schedule: Q01DX015 (ip), vehicle: methylcellulose (MC)): 0 of 6

SMILES: c1ccc(P(=NC2CCCCCC2)(c2ccccc2)c2ccccc2)cc1
- survivor count (dose: 400.0 mg/kg/injection, schedule: Q01DX001 (ip), vehicle: acetone): 3 of 6

SMILES: O=C(/C=C/c1ccccc1)NC(=S)Nc1ccccc1C(F)(F)F
- T/C [8]: 87, 96, 100 % of control
- survivor count [8]: 3 of 3
- T/C [9]: 87, 90, 91 % of control
- survivor count [9]: 2 of 3
- T/C [10]: 90, 90 [2 of 3 alive], 91, 95, 96 % of control
- survivor count [10]: 6 of 6
- survivor count (dose: 100.0 mg/kg/injection, schedule: Q04DX002 (ip), vehicle: saline with Tween-80): 3 of 3
- T/C [5]: 89 % of control (2×)
- survivor count [5]: 2 of 3 and 5 of 6
- survivor count [11]: 0 of 3

SMILES: CC1CC[N-]CC1.CC1CC[N-]CC1.CC1CC[N-]CC1.CC1CC[N-]CC1.O=C([O-])C(=O)[O-].O=C([O-])C(=O)[O-].[Nb+5].[O-][O-].[O-][O-].[Pt+4]
- survivor count (dose: 6.25 mg/kg/injection, schedule: Q04DX003 (ip), vehicle: saline): 1 of 6
- survivor count (dose: 12.5 mg/kg/injection, schedule: Q04DX003 (ip), vehicle: saline): 0 of 6
- survivor count (dose: 25.0 mg/kg/injection, schedule: Q04DX003 (ip), vehicle: saline): 0 of 6
- survivor count (dose: 50.0 mg/kg/injection, schedule: Q04DX003 (ip), vehicle: saline): 0 of 6
- survivor count [12]: 1 of 6
- survivor count [13]: 0 of 6
- survivor count [14]: 1 of 6

SMILES: CC1(C)c2cc3ccc(Cl)cc3nc2-c2ccccc2C1(C)O (centres undefined)
- survivor count [15]: 6 of 6

SMILES: c1ccc2c[n+]3ccccc3cc2c1
- survivor count (dose: 35.0 mg/kg/injection, schedule: Q01DX009 (ip), vehicle: saline): 2 of 6
- survivor count (dose: 55.0 mg/kg/injection, schedule: Q01DX009 (ip), vehicle: saline): 0 of 6
- survivor count (dose: 80.0 mg/kg/injection, schedule: Q01DX009 (ip), vehicle: saline): 1 of 6
- survivor count [12]: 0 of 6
- survivor count [13]: 0 of 6
- survivor count [14]: 0 of 6

SMILES: O=[N+]([O-])c1ccc(Cl)c(O)c1
- survivor count (dose: 100.0 mg/kg/injection, schedule: Q01DX009 (ip), vehicle: carboxymethylcellulose (CMC)): 6 of 6
- survivor count (dose: 200.0 mg/kg/injection, schedule: Q01DX009 (ip), vehicle: carboxymethylcellulose (CMC)): 0 of 6
- survivor count (dose: 400.0 mg/kg/injection, schedule: Q01DX009 (ip), vehicle: carboxymethylcellulose (CMC)): 0 of 6

SMILES: CC(C)=CCNC1=NCCN1
- survivor count [10]: 1 of 6
- survivor count [5]: 0 of 6
- survivor count [11]: 0 of 6

SMILES: CC[n+]1ccc(/C=C\c2c(Cl)cccc2Cl)cc1
- survivor count (dose: 50.0 mg/kg/injection, schedule: Q01DX009 (ip), vehicle: Klucel (hydroxypropylcellulose) (HPC)): 0 of 6
- survivor count [7]: 0 of 6
- survivor count [6]: 0 of 6
- survivor count [15]: 0 of 6

SMILES: CCCCCc1cccc(C)n1
- survivor count [1]: 1 of 4
- survivor count [2]: 0 of 4
